# Data reported in PubChem BioAssay AID1487 (National Center for Advancing Translational Sciences (NCATS), 2009).
# The list shows a part of the results. Further columns of the screen follow, without active or inactive calls. The list favours compounds with an active or inconclusive main result. Potencies come from curve fits of mixed quality, noted in brackets.
# Assay: qHTS Assay for Modulators of Lamin A Splicing
# Conditions: HeLa LMNA splicing GFP/RFP minigene ratio, 48 h; measured here: RFP viability control channel
# Procedure, shortened: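 Read-out is the ratio of GFP to DsRed2 object intensity, acquired by 488 nm laser-scanning cytometry on HeLa lamin A-EGFP minigene reporter cells. Compound incubation 48 hrs at 37 °C in Opti-MEM with 2% FBS; DMSO 0.5% final.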
row,SMILES,AC50
1,O=C(Nc1ccc(-c2nc3ccccc3[nH]2)cc1)c1ccccc1NS(=O)(=O)c1ccc(F)cc1,"6.31 µM [rising, partial curve]"
